Assay results from publication PMC4063869, “Structure of CbpA J-Domain Bound to the Regulatory Protein CbpM Explains Its Specificity and Suggests Evolutionary Link between CbpM and Transcriptional Regulators” (PLoS ONE, 2014).

Key:
[1] = biological target: T1, Klebsiella pneumoniae CbpM (residues 2-101) (Klebsiella pneumoniae (strain ATCC 700721/MGH 78578)); assay: crystal structure; K. pneumoniae CbpM with E. coli CbpA^Jdom, complex separated from excess CbpA^Jdom on Superdex 75; hanging drop, 0.1 M HEPES pH 7, 20% (w/v) PEG 8K; 1.87 Å; both purified
T1 sequence: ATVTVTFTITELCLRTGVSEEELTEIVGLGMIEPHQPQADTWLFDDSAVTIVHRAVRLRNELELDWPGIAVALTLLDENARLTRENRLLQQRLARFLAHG

[2] = biological target: T1, Klebsiella pneumoniae CbpM (residues 2-101) (Klebsiella pneumoniae (strain ATCC 700721/MGH 78578)); assay: SEC + other: dynamic light scattering; CbpM-CbpA^Jdom complex in solution; conditions not given; both purified

Substance: J-domain of E. coli CbpA (CbpA^Jdom) (domain or fragment)
- binding [1]: binds
- binding [2]: binds

These are yes or no findings as the source states them, for the method shown. Binding calls can cover weak binding; strength is not graded here.
